Data published in patent US5936105A, “14-EPI-19-nor-vitamin D compounds and methods” (Tetrionics, Inc., priority 1998, dated 1999).

System: HL-60 cells
Experiment: Therapeutic Potential (T.P.) = cellular activity/calcemic activity
Design: species or system human
Conditions: relative to 1,25-(OH)2 D3

Compound	therapeutic potential, in words
C[C@H](CCCC(C)(C)O)[C@H]1CC[C@@H]2/C(=C/C=C3C[C@@H](O)C[C@H](O)C3)CCC[C@@]21C [[27], 14-epi-19-nor-1α,25-dihydroxyvitamin D3]	lower therapeutic potential; also recorded: enhanced therapeutic potential relative to the natural hormone
C[C@@H](CCCC(C)(C)O)[C@H]1CC[C@@H]2/C(=C/C=C3C[C@@H](O)C[C@H](O)C3)CCC[C@@]21C [[29], 14-epi-20-epi-19-nor-1α,25-dihydroxyvitamin D3]	enhanced therapeutic potential relative to the natural hormone; also recorded: exceeding the natural hormone by two orders of magnitude

Entries after “also recorded” stand apart in the source; their conditions may differ.
